The supplement of paper PMC10849652
The list shows a part of the results.

Chains of the proteins cited; added tags and fusions are not shown. Lines headed by an entry give the natural chain unless they say otherwise; changes in a name come on top.
UniProt Q14999: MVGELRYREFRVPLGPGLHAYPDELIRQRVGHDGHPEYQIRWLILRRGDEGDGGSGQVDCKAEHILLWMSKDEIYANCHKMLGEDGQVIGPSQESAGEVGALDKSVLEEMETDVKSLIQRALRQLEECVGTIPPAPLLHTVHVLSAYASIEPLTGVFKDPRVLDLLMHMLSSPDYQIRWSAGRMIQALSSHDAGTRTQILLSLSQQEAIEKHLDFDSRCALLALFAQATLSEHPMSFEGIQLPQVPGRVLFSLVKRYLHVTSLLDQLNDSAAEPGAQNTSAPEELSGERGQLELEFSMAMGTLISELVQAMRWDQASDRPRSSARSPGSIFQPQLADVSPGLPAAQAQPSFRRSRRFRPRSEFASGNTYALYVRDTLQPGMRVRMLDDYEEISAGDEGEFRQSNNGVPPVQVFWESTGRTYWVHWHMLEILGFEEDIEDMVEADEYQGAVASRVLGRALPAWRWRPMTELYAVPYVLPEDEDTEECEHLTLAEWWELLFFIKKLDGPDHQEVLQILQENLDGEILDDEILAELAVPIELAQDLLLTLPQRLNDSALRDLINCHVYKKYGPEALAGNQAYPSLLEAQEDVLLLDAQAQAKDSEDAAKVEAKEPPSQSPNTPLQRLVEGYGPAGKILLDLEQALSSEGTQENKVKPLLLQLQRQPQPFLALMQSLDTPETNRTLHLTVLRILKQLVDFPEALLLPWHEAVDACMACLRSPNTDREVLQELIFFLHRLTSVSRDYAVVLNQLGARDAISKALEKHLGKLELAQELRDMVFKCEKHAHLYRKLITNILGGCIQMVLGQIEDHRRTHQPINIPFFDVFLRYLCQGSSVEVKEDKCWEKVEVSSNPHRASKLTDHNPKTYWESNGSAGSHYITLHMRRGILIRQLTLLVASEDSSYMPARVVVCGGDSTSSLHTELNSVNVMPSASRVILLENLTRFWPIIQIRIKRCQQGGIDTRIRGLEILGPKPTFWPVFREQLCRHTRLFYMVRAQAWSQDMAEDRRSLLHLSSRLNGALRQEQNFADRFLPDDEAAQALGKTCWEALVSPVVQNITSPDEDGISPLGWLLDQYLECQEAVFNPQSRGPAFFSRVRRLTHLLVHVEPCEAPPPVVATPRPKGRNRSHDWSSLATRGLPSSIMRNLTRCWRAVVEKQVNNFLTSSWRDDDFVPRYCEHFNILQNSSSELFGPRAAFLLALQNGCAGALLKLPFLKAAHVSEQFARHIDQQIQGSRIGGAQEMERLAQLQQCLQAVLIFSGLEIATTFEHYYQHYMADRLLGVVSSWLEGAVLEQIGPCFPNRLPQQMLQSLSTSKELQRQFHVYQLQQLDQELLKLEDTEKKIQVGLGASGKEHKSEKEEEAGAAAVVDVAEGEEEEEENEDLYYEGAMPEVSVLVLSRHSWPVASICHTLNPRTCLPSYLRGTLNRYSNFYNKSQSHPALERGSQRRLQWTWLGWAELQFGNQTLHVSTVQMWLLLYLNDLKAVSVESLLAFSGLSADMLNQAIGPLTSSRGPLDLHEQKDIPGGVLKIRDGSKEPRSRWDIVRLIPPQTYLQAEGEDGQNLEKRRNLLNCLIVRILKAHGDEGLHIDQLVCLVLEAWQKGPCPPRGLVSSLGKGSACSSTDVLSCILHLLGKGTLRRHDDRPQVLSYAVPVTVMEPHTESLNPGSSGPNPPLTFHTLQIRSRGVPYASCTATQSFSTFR
UniProt Q9BTE7: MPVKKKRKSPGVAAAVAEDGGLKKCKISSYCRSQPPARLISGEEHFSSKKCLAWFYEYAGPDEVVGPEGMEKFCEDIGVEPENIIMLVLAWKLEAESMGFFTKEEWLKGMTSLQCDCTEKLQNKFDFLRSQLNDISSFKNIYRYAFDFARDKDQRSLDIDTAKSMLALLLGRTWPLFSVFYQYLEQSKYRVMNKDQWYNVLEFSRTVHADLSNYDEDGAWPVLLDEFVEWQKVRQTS
UniProt Q8IZD4: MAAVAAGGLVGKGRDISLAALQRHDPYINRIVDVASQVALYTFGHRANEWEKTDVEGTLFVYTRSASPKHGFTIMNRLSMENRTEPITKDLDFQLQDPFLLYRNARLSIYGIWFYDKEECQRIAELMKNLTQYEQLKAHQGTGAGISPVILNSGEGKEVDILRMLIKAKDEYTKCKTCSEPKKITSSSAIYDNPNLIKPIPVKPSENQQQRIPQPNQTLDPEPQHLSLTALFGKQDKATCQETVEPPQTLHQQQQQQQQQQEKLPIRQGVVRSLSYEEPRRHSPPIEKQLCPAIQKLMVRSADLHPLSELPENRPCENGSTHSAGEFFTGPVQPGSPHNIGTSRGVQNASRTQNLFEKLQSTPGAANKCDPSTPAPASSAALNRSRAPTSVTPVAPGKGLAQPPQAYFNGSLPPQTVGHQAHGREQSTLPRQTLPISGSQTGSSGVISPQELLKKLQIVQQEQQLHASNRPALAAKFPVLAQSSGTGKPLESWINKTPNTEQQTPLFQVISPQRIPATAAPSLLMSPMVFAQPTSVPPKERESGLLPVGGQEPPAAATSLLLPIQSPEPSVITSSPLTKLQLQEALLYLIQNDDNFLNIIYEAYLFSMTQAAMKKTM
UniProt P17812: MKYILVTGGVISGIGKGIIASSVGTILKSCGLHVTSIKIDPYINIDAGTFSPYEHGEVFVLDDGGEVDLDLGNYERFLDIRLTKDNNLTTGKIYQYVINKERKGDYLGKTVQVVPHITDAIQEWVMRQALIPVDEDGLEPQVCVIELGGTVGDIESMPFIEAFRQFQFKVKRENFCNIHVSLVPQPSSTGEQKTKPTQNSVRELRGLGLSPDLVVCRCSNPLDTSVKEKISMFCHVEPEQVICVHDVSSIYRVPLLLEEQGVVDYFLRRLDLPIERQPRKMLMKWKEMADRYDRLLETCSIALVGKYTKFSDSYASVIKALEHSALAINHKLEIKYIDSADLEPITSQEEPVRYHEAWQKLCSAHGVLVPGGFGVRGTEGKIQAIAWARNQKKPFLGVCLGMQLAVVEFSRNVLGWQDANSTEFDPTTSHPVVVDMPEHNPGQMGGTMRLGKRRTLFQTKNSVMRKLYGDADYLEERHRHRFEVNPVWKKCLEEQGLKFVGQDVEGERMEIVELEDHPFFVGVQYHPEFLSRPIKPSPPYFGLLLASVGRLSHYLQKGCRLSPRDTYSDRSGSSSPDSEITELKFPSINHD
UniProt O95196: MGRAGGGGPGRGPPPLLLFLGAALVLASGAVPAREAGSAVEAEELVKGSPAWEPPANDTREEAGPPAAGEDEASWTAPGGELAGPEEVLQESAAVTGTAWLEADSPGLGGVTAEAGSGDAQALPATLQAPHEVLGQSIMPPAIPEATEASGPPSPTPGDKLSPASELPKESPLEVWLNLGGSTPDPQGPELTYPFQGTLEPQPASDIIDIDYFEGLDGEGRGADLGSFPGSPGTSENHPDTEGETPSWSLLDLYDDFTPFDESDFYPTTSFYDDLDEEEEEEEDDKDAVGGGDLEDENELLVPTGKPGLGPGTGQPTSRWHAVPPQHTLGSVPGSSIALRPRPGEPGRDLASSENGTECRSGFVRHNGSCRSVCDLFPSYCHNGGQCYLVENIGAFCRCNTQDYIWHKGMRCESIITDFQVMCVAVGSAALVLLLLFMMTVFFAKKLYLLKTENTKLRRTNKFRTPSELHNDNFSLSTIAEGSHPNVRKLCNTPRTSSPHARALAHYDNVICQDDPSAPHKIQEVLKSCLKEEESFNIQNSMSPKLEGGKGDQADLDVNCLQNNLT
UniProt Q07973: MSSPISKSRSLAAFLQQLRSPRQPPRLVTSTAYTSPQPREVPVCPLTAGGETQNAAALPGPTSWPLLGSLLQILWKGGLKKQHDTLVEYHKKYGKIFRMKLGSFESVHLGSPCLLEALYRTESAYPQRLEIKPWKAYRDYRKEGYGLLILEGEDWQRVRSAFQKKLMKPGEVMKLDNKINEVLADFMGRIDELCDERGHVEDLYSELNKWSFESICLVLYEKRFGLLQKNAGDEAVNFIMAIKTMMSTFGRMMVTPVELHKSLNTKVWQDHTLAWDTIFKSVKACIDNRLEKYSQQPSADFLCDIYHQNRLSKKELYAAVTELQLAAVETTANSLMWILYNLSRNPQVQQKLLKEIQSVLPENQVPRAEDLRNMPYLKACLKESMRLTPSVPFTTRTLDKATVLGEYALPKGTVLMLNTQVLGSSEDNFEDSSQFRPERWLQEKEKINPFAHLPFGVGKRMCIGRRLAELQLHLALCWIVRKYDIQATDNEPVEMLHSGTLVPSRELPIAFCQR
UniProt Q9HCG8: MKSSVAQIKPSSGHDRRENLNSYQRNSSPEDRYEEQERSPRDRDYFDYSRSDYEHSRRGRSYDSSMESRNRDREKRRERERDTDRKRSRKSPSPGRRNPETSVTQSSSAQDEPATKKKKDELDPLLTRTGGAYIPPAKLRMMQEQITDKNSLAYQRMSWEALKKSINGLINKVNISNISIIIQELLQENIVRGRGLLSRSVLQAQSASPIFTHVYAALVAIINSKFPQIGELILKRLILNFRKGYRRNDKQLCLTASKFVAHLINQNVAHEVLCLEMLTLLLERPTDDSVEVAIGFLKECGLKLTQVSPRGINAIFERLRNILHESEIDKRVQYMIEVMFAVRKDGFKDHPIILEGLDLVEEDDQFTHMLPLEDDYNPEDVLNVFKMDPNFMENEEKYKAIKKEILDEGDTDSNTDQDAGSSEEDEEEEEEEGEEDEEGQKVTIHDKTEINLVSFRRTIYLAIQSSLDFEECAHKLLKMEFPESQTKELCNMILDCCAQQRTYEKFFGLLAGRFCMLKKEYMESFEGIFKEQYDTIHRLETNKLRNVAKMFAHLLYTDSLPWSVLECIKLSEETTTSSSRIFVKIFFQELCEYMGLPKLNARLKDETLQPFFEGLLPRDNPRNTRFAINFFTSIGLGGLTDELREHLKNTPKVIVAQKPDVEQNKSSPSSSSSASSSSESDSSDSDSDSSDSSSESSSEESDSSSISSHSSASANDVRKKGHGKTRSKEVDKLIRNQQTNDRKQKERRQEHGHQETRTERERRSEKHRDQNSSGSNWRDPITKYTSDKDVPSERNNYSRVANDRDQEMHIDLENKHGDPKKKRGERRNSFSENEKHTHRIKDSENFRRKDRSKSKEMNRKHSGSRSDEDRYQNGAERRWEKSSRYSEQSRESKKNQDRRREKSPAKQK
UniProt Q96PD2: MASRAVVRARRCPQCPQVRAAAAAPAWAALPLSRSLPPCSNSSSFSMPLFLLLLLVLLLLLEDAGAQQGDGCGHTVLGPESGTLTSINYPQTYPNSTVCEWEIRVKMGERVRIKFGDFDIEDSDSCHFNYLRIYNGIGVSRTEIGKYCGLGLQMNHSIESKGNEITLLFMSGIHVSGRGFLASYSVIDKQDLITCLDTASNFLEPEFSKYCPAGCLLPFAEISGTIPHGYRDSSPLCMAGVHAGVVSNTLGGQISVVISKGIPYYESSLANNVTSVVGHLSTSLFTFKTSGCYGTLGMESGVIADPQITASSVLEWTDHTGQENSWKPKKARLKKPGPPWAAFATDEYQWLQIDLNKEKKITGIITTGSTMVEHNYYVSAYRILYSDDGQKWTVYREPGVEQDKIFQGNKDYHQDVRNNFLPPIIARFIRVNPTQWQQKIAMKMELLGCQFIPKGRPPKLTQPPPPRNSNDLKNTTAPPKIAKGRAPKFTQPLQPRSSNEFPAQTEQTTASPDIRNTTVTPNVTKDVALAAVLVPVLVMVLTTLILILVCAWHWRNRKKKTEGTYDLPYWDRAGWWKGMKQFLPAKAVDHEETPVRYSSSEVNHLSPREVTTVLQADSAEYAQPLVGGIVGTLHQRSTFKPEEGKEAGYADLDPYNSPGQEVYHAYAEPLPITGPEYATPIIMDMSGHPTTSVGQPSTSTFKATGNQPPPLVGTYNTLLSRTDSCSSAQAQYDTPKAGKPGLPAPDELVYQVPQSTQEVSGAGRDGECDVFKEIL
UniProt Q6VVX0: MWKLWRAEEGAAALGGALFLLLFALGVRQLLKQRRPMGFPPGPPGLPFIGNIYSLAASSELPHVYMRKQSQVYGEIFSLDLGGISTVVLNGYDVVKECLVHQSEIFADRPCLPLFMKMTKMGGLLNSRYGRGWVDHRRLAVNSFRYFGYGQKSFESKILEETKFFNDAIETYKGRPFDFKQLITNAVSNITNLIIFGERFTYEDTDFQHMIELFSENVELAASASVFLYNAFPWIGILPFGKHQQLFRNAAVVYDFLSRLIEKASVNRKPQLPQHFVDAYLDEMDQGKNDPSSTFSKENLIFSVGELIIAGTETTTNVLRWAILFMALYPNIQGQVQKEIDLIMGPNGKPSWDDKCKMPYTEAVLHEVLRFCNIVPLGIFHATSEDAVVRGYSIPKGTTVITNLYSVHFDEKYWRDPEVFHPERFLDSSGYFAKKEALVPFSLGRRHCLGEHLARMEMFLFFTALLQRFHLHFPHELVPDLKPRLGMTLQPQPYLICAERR
UniProt P01036: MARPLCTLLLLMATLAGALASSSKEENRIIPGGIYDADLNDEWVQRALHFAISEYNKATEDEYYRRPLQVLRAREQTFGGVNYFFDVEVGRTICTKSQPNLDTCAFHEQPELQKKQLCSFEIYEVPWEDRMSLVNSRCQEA

Columns and labels:
Assay in all cases: log2 fold change, soluble protein after heating vs DMSO (PISA); higher = thermal stabilisation; K562 cells, 10 uM, 30 min; active = over 0.2 and 3.5 SD of the protein, either way, in both replicates (recomputed)
[1] = compound: CN1CCN(CCOc2cc(OC3CCOCC3)c3c(Nc4c(Cl)ccc5c4OCO5)ncnc3c2)CC1 [saracatinib]
Method in brief: (§1)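 Values are thermal stability changes relative to control samples and are taken from duplicates. They are stated as log2 fold changes. Before quantification by TMTpro 16plex LC-MS/MS with equalised channel sums, K562 cells at 2×10^6 cells/mL were treated with 10 μM compound for 30 min, heated in aliquots for 3 min across 48°C-58°C, pooled, extracted in PBS with 0.5% NP-40 at 4°C, and centrifuged at 21,000xg for 90 min to give the soluble supernatant.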

[2] = compound: CN1CCc2c(c3ccccc3n2Cc2ccc(C(=O)NO)cc2)C1 [Tubastatin A]
Method in brief: as §1

[3] = compound: CNC(=O)C1=CC=CC=C1NC2=NC(=NC=C2Cl)NC3=C(C=C(C=C3)N4CCOCC4)OC
Method in brief: as §1

[4] = compound: CNc1nc(-c2ccc3c(N)n[nH]c3c2)cc(N2C[C@@H](C(=O)NC3CCCCC3)CC[C@H]2C)n1
Method in brief: as §1

[5] = compound: COc1cc2nc(-c3cc(F)ccc3O)nc(N[C@@H]3CNC[C@H]3C(C)(C)O)c2cc1OC
Method in brief: as §1

[6] = compound: COc1cc2ncnc(Nc3ccc(F)c(Cl)c3)c2cc1OCCCN1CCOCC1 [gefitinib]
Method in brief: as §1

[7] = compound: CS(=O)(=O)CCNCc1ccc(-c2ccc3ncnc(Nc4ccc(OCc5cccc(F)c5)c(Cl)c4)c3c2)o1 [lapatinib]
Method in brief: as §1

[8] = compound: CS(=O)(=O)N1CCN(Cc2cc3nc(-c4cccc5[nH]ncc45)nc(N4CCOCC4)c3s2)CC1 [pictilisib]
Method in brief: as §1

[9] = compound: CNC(=O)c1ccc(Nc2ncc(C(F)(F)F)c(NCc3nccnc3N(C)S(C)(=O)=O)n2)cc1 [defactinib]
Method in brief: as §1

[10] = compound: COC(=O)[C@H](CCSC)NC(=O)C1=C(C=C(C=C1)NC[C@H](CS)N)C2=CC=CC=C2
Method in brief: as §1

[11] = compound: COC1=CC=C(C=C1)CN2C=CC3=C2C=C(C=C3)C(=O)NO
Method in brief: as §1

[12] = compound: COc1cc(C(=O)O)ccc1NC(=O)[C@@H]1N[C@@H](CC(C)(C)C)[C@](C#N)(c2ccc(Cl)cc2F)[C@H]1c1cccc(Cl)c1F [idasanutlin]
Method in brief: as §1

[13] = compound: COc1cc(Nc2ncc3c(n2)-c2ccc(Cl)cc2C(c2c(F)cccc2OC)=NC3)ccc1C(=O)O [alisertib]
Method in brief: as §1

[14] = compound: COc1cccc2cc(-c3nc([C@H]4CC[C@H](C(=O)O)CC4)n4ncnc(N)c34)[nH]c12
Method in brief: as §1

[15] = compound: CN1CCN(c2nc(C3=C(c4c[nH]c5ccccc45)C(=O)NC3=O)c3ccccc3n2)CC1 [sotrastaurin]
Method in brief: as §1

[16] = compound: CNCc1ccc(-c2[nH]c3cc(F)cc4c3c2CCNC4=O)cc1 [rucaparib]
Method in brief: as §1

[17] = compound: COC(=O)N[C@@H](C)CNc1nccc(-c2cn(C(C)C)nc2-c2cc(Cl)cc(NS(C)(=O)=O)c2F)n1 [encorafenib]
Method in brief: as §1

[18] = compound: CON(C)C(=O)N1N=C(c2cc(F)ccc2F)S[C@@]1(CCCN)c1ccccc1 [filanesib]
Method in brief: as §1

[19] = compound: CO[C@H]1C[C@@H]2CC[C@@H](C)[C@@](O)(O2)C(=O)C(=O)N2CCCC[C@H]2C(=O)O[C@H]([C@H](C)C[C@@H]2CC[C@H](n3cnnn3)[C@H](OC)C2)CC(=O)[C@H](C)/C=C(\C)[C@@H](O)[C@@H](OC)C(=O)[C@H](C)C[C@H](C)/C=C/C=C/C=C/1C [zotarolimus]
Method in brief: as §1

[20] = compound: CN1CC[C@H](c2c(O)cc(O)c3c(=O)cc(-c4ccccc4Cl)oc23)[C@H](O)C1 [alvocidib]
Method in brief: as §1

Measured: log2 fold change

CUL7 isoform 2 (UniProt Q14999)
inactive: [1] -0.133 | [2] 0.046 | [3] 0.011 | [4] 0.133 | [5] 0.111 | [6] 0.386 | [7] -0.023 | [8] -0.206

DCUN1D5 (UniProt Q9BTE7)
inactive: [2] 0.138 | [9] -0.345 | [10] 0.012 | [11] -0.022 | [12] 0.095 | [13] 0.109 | [14] -0.039 | [8] 0

CST6 (UniProt Q15828)
inactive: [15] -0.013 | [2] -0.142 | [16] -0.161 | [17] -0.338 | [18] -0.288 | [13] 1.23 | [6] 0.108 | [14] -0.025

DCP1B (UniProt Q8IZD4)
inactive: [2] 0.144

CTPS1 isoform 2 (UniProt P17812)
inactive: [15] -0.078 | [18] -0.339 | [12] -0.11

DBNDD1 isoform 3 (UniProt Q9H9R9)
inactive: [15] -0.214 | [3] -0.132 | [18] -0.011

CXCL14 (UniProt O95715)
inactive: [15] 0.126 | [11] 0.2 | [18] 0.075 | [13] -0.308 | [6] -0.011 | [14] 0.23

CSPG5 (UniProt O95196)
inactive: [15] 0.147 | [3] -0.143 | [16] 0.009 | [17] -0.198 | [18] 0.042 | [5] 0.073 | [7] 0.07

DBNL (UniProt Q9UJU6)
inactive: [19] -0.324

CYP24A1 (UniProt Q07973)
inactive: [1] -0.144 | [2] 0.365 | [3] -0.075 | [9] 0.394 | [16] 0.115 | [4] 0.078 | [17] 0.075 | [10] 0.016 | [11] 0.1 | [12] 0.039 | [13] -0.095 | [5] 0.091 | [6] -0.044 | [14] -0.306 | [7] 0.067 | [8] -0.059

CTNS isoform 2 (UniProt O60931)
inactive: [15] 0.07 | [20] 0.004 | [9] -0.172 | [16] -0.104 | [17] 0.101 | [10] -0.061 | [18] -0.132 | [19] 0.115 | [13] 0.029 | [14] 0.081

CSRP2 (UniProt Q16527)
inactive: [15] 0.095 | [20] -0.099 | [2] -0.051 | [9] 0.007 | [10] -0.03 | [18] -0.035 | [19] 0.1 | [12] 0.037

CTIF (UniProt O43310)
inactive: [15] 0.076 | [20] 0.093 | [2] 0.074 | [9] 0.088 | [10] -0.391 | [18] 0.171 | [19] -0.167

CYREN isoform 4 (UniProt Q9BWK5)
inactive: [1] -0.135 | [9] 0.014 | [4] -0.142 | [10] 0.016 | [11] 0.122 | [12] 0.029 | [13] 0.441 | [5] 0.517 | [14] 0.023 | [7] -0.039 | [8] 0

DCAF12 (UniProt Q5T6F0)
inactive: [15] 0.058 | [16] 0.199 | [17] 0.112 | [18] -0.037 | [13] 0.073 | [14] 0.036 | [8] 0.16

CWC22 (UniProt Q9HCG8)
inactive: [11] 0.035 | [5] -0.359 | [7] 0.216

CWC25 (UniProt Q9NXE8)
inactive: [15] 0.006 | [20] 0.393 | [2] -0.036 | [3] -0.052 | [16] 0.026 | [17] 0.197 | [11] 0 | [18] 0.404 | [19] -0.071 | [12] 0.329 | [13] -0.021 | [6] -0.062 | [14] -0.097 | [8] -0.092

CTDSP1 (UniProt Q9GZU7)
inactive: [2] 0.085 | [3] -0.018 | [9] -0.092 | [10] -0.13 | [6] 0.062 | [8] -0.177

DCAF17 (UniProt Q5H9S7)
inactive: [9] -0.01 | [16] -0.134 | [17] 0.023 | [10] -0.102

DCBLD2 isoform 2 (UniProt Q96PD2)
inactive: [1] -0.033 | [4] 0 | [12] 0.225

CYP2R1 (UniProt Q6VVX0)
inactive: [20] -0.227 | [2] -0.025 | [16] 0.218 | [17] -0.121 | [19] -0.055 | [6] -0.099

CTNNBL1 (UniProt Q8WYA6)
inactive: [9] -0.513 | [16] 0.137 | [17] 0.121 | [10] -0.19 | [5] -0.008 | [7] -0.581

CXXC5 (UniProt Q7LFL8)
inactive: [1] 0.068 | [3] -0.136 | [4] 0.038

CST4 (UniProt P01036)
inactive: [15] 0.27 | [20] -0.231 | [9] 0.085 | [10] 0.014 | [18] -0.063 | [19] 0.052 | [13] 0.04 | [6] 0.054 | [14] 0.156

CTSF (UniProt Q9UBX1)
inactive: [3] 0.138 | [8] -0.039

Copied from above (two entries):
CST4 (UniProt P01036)
inactive: [15] 0.27 | [20] -0.231 | [9] 0.085 | [10] 0.014 | [18] -0.063 | [19] 0.052 | [13] 0.04 | [6] 0.054 | [14] 0.156

CTSF (UniProt Q9UBX1)
inactive: [3] 0.138 | [8] -0.039

Further records.

CYTH2 (UniProt Q99418)
inactive: [1] -0.197 | [2] 0.393 | [3] -0.031 | [4] -0.143 | [11] 0.112 | [12] -0.095 | [13] -0.16 | [5] -0.077 | [14] 0.025 | [7] 0.173
